Source: patent US20150166643A1 (Alexion, published 2015)
Positions count from the first letter of the chain named. Names may count otherwise. Results are given in words; binding and its absence hold for the method and conditions named. Some binding calls cover weakened binding; strength is not graded here.

By UniProt entry, the sequences of proteins in these tests, tags left out. Where a name states a change or a piece, a line headed by the entry shows the natural chain unless it says otherwise.
UniProt P00751: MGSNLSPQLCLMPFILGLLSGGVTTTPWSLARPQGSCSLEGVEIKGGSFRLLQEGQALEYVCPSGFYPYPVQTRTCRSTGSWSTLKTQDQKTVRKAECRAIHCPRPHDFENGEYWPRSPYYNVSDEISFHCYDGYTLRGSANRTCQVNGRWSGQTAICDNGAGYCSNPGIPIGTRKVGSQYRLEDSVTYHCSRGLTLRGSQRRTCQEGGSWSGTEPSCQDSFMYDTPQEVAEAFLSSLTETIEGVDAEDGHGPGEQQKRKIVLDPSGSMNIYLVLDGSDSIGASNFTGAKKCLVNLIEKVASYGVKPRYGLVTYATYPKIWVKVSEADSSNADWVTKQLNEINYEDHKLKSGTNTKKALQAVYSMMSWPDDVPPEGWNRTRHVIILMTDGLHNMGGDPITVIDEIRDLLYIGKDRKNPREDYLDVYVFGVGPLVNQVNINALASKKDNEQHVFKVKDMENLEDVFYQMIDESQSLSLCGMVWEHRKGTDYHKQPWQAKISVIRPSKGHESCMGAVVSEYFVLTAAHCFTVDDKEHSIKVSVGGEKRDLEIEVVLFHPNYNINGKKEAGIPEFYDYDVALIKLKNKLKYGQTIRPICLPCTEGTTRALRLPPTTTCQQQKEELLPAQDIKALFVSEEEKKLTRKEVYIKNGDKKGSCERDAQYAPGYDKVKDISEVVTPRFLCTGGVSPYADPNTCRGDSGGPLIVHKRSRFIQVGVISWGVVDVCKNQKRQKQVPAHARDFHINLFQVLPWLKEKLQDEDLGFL

Columns and labels:
[1] = target: human factor B (purified, Complement Technology A135) (human) (UniProt P00751); test: ELISA, binding to fB
[2] = target: human factor B (purified, Complement Technology A135) (human) (UniProt P00751); test: SPR sensorgrams, captured antibody, soluble human factor B
[3] = target: human factor B (purified, Complement Technology A135) (human) (UniProt P00751); test: SPR (Biacore), captured antibody, 200 nM soluble factor B flowed
[4] = target: human factor B (purified, Complement Technology A135) (human) (UniProt P00751); test: ELISA, human factor B coated at 0.5 ug/mL, detection with sheep anti-human kappa light chain HRP, abs 450 nm against nM antibody

Measured: binding

B1: CLS012 (TA106-derivative N31Q variant, full-length IgG2/4 mAb, expressed in CHO cells) (antibody, V domains shown)
VH: EVQLVQSGAEVKKPGASVKVSCKASGYSFTDYYMTWVRQAPGQGLEWMGWINPNSGGTKYAQKFQGRVTMTRDTSISTAYMELSRLRSDDTAVYYCARGYYANSAWFAYWGQGTLVTVSS
VL: DIVMTQSPDSLAVSLGERATINCKSSQSLLQSSTSKNYLAWYQQKPGQPPKLLIYWASTRESGVPDRFSGSGSGTDFTLTISSLQAEDVAVYYCKQVYNLPWTFGQGTKLEIKR
modifications: N-linked glycans on the heavy chain constant region
notes: Human IgG2/4 full-length mAb; also called CLS012 mAb; TA106 variant N31Q
binds: [1] | [2] | [3] | [4]

B2: CLS013 (TA106-derivative S33A variant, full-length IgG2/4 mAb, expressed in CHO cells) (antibody, V domains shown)
VH: B1 VH
VL: B1 VL with Q31N, S33A
modifications: N-linked glycans on the heavy chain
notes: Human IgG2/4 full-length mAb; also called CLS013 mAb; TA106 variant S33A
binds: [1] | [3] | [4]
